# Source: the supplement of paper PMC7238544
# ± gives the standard deviation of the averaged measurements. The list shows a part of the results. The data scatter; read single values as rough.
# Columns and labels:
# hAMSC donor 1 [1] = experiment: Hoechst total cell count ratio vs vehicle control; higher = more cells (less toxicity)
# hAMSC donor 2 [2] = experiment: as above
# hAMSC donor 1 [3] = experiment: transgenic luciferase activity (RLU/mg protein) fold change vs vehicle control (ratio); higher = more transgene expression
# hAMSC donor 2 [4] = experiment: as above
# hAMSC donor 1 [5] = experiment: transfection efficiency (EGFP+ cells / Hoechst count) fold change vs vehicle control (ratio); hAMSC are human adipose-derived mesenchymal stem cells given an EGFP-luciferase plasmid by lipofection; higher = enhanced transfection
# hAMSC donor 2 [6] = experiment: as above
# [7] = priming compound concentration 0.2 µM
# [8] = priming compound concentration 1.7 µM
# [9] = priming compound concentration 13 µM
smiles,measurement,setting,value
CCOC(=O)[C@@]1(CCCCCCOc2ccc(Cl)cc2)CO1 [Etomoxir],Hoechst total cell count ratio,hAMSC donor 1 [1]; [7],1.28 ± 0.35
same,Hoechst total cell count ratio,hAMSC donor 1 [1]; [8],1.21 ± 0.029
same,Hoechst total cell count ratio,hAMSC donor 1 [1]; [9],1.04 ± 0.12
same,Hoechst total cell count ratio,hAMSC donor 2 [2]; [7],0.813 ± 0.12
same,Hoechst total cell count ratio,hAMSC donor 2 [2]; [8],0.916 ± 0.12
same,Hoechst total cell count ratio,hAMSC donor 2 [2]; [9],1.35 ± 0.08
same,transgenic luciferase activity,hAMSC donor 1 [3]; [7],0.743 ± 0.31
same,transgenic luciferase activity,hAMSC donor 1 [3]; [8],0.615 ± 0.2
same,transgenic luciferase activity,hAMSC donor 1 [3]; [9],0.698 ± 0.21
same,transgenic luciferase activity,hAMSC donor 2 [4]; [9],0.946 ± 0.35
same,transfection efficiency,hAMSC donor 1 [5]; [7],1.16 ± 0.25
same,transfection efficiency,hAMSC donor 1 [5]; [8],0.906 ± 0.12
same,transfection efficiency,hAMSC donor 1 [5]; [9],1.16 ± 0.17
same,transfection efficiency,hAMSC donor 2 [6]; [7],1.61 ± 0.41
same,transfection efficiency,hAMSC donor 2 [6]; [8],0.988 ± 0.16
same,transfection efficiency,hAMSC donor 2 [6]; [9],1.35 ± 0.019
COc1cc(C)c(Cc2cnc(N)nc2N)cc1OC [Ormetoprim],Hoechst total cell count ratio,hAMSC donor 1 [1]; [7],1.07 ± 0.066
same,Hoechst total cell count ratio,hAMSC donor 1 [1]; [8],1.27 ± 0.038
same,Hoechst total cell count ratio,hAMSC donor 1 [1]; [9],0.876 ± 0.066
same,Hoechst total cell count ratio,hAMSC donor 2 [2]; [7],0.807 ± 0.14
same,Hoechst total cell count ratio,hAMSC donor 2 [2]; [8],1.27 ± 0.045
same,Hoechst total cell count ratio,hAMSC donor 2 [2]; [9],1.41 ± 0.11
same,transgenic luciferase activity,hAMSC donor 1 [3]; [7],0.821 ± 0.32
same,transgenic luciferase activity,hAMSC donor 1 [3]; [8],0.914 ± 0.28
same,transgenic luciferase activity,hAMSC donor 2 [4]; [7],0.803 ± 0.17
same,transgenic luciferase activity,hAMSC donor 2 [4]; [8],0.98 ± 0.12
same,transgenic luciferase activity,hAMSC donor 2 [4]; [9],0.703 ± 0.16
same,transfection efficiency,hAMSC donor 1 [5]; [7],1.58 ± 0.46
same,transfection efficiency,hAMSC donor 1 [5]; [8],1.23 ± 1
same,transfection efficiency,hAMSC donor 1 [5]; [9],1.19 ± 0.26
same,transfection efficiency,hAMSC donor 2 [6]; [7],1.26 ± 0.17
same,transfection efficiency,hAMSC donor 2 [6]; [8],0.936 ± 0.015
same,transfection efficiency,hAMSC donor 2 [6]; [9],1.03 ± 0.077
Nc1nc2c(ncn2COC(CO)CO)c(=O)[nH]1 [Ganciclovir],Hoechst total cell count ratio,hAMSC donor 1 [1]; [7],1.09 ± 0.088
same,Hoechst total cell count ratio,hAMSC donor 1 [1]; [8],1.22 ± 0.12
same,Hoechst total cell count ratio,hAMSC donor 1 [1]; [9],1.32 ± 0.16
same,Hoechst total cell count ratio,hAMSC donor 2 [2]; [7],1.19 ± 0.15
same,Hoechst total cell count ratio,hAMSC donor 2 [2]; [8],1.14 ± 0.043
same,Hoechst total cell count ratio,hAMSC donor 2 [2]; [9],1.32 ± 0.38
same,transgenic luciferase activity,hAMSC donor 1 [3]; [7],0.702 ± 0.15
same,transgenic luciferase activity,hAMSC donor 1 [3]; [8],1.46 ± 1.2
same,transgenic luciferase activity,hAMSC donor 2 [4]; [7],0.998 ± 0.2
same,transgenic luciferase activity,hAMSC donor 2 [4]; [8],1.12 ± 0.64
same,transgenic luciferase activity,hAMSC donor 2 [4]; [9],0.508 ± 0.081
same,transfection efficiency,hAMSC donor 1 [5]; [7],1.44 ± 0.47
same,transfection efficiency,hAMSC donor 1 [5]; [8],1.34 ± 0.41
same,transfection efficiency,hAMSC donor 1 [5]; [9],0.886 ± 0.18
same,transfection efficiency,hAMSC donor 2 [6]; [7],0.981 ± 0.18
same,transfection efficiency,hAMSC donor 2 [6]; [8],1.35 ± 0.13
same,transfection efficiency,hAMSC donor 2 [6]; [9],0.864 ± 0.13

# 2 entries from above, set out differently:
smiles	measurement	setting	value
CCOC(=O)[C@@]1(CCCCCCOc2ccc(Cl)cc2)CO1 [Etomoxir]	transfection efficiency	hAMSC donor 1 [5]; [8]	0.906 ± 0.12
same	transfection efficiency	hAMSC donor 1 [5]; [9]	1.16 ± 0.17
